Consider 15 molecules from patent US20240262919A1 (SHANGHAITECH UNIVERSITY, published 2024).

Results are given in words; binding and its absence hold for the method and conditions named. Some entries that bind do so weakly or less than the wild type.

For the experiment, the target named is T1, antigen of the affinity maturation selections of antibody 3131 (IL-18Rβ, construct not named) (UniProt O95256).
T1 sequence (looked up): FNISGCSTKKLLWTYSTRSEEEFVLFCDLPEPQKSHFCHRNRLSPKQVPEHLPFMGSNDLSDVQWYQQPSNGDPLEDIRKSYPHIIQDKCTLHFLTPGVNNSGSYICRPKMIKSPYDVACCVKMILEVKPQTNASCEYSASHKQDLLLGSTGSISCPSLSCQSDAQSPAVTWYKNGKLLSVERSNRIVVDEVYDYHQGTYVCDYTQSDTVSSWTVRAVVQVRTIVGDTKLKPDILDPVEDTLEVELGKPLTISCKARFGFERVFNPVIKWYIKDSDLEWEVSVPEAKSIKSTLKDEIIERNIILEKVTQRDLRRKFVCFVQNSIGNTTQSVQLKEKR
Description: affinity-based solution-phase phage display selection, decreasing antigen concentration.

B1: 3131 AM2-36 (Fab, V domains shown)
VH: EVQLVESGGGLVQPGGSLRLSCAASGFNLYYSSMHWVRQAPGKGLEWVASIYSSSGSTSYADSVKGRFTISADTSKNTAYLQMNSLRAEDTAVYYCARSSFSHGYGWYGLDYWGQGTLVTVSS
VL: DIQMTQSPSSLSASVGDRVTITCRASQSVSSAVAWYQQKPGKAPKLLIYSASSLYSGVPSRFSGSRSGTDFTLTISSLQPEDFATYYCQQYGYHYAGLITFGQGTKVEIK
notes: Fab
In the case of B1, the binding result is “binds”.

B2: 3131 AM2-5 (Fab, V domains shown)
VH: EVQLVESGGGLVQPGGSLRLSCAASGFNLYYSSMHWVRQAPGKGLEWVASIYSSSGDTHYADSVKGRFTISADTSKNTAYLQMNSLRAEDTAVYYCARSSFSHGYGWYGLDYWGQGTLVTVSS
VL: DIQMTQSPSSLSASVGDRVTITCRASQSVSSAVAWYQQKPGKAPKLLIYSASSLYSGVPSRFSGSRSGTDFTLTISSLQPEDFATYYCQQYGYHYAGLITFGQGTKVEIK
notes: Fab
As to B2, the binding entry is recorded as “binds”.

B3: 3131 AM2-21 (Fab, V domains shown)
VH: EVQLVESGGGLVQPGGSLRLSCAASGFNLYYSSMHWVRQAPGKGLEWVASIYSSYGYTYYADSVKGRFTISADTSKNTAYLQMNSLRAEDTAVYYCARSSFSHGYGWYGLDYWGQGTLVTVSS
VL: DIQMTQSPSSLSASVGDRVTITCRASQSVSSAVAWYQQKPGKAPKLLIYSGSSGRSGVPSRFSGSRSGTDFTLTISSLQPEDFATYYCQQYGYHYAGLITFGQGTKVEIK
notes: Fab
As to B3, the binding entry is “binds”.

B4: 3131 AM2-3 (Fab, V domains shown)
VH: EVQLVESGGGLVQPGGSLRLSCAASGFNLYYSSMHWVRQAPGKGLEWVASIYSSSGYTSYADSVKGRFTISADTSKNTAYLQMNSLRAEDTAVYYCARSSFSHGYGWYGLDYWGQGTLVTVSS
VL: DIQMTQSPSSLSASVGDRVTITCRASQSVSSAVAWYQQKPGKAPKLLIYSASSLYSGVPSRFSGSRSGTDFTLTISSLQPEDFATYYCQQYGYHYAGLITFGQGTKVEIK
notes: Fab
B4: the binding entry is reported as “binds”.

B5: 3131 AM2-9 (Fab, V domains shown)
VH: EVQLVESGGGLVQPGGSLRLSCAASGFNLYYSSMHWVRQAPGKGLEWVASIYSSYGYTYYADSVKGRFTISADTSKNTAYLQMNSLRAEDTAVYYCARSSFSHGYGWYGLDYWGQGTLVTVSS
VL: DIQMTQSPSSLSASVGDRVTITCRASQSVSSAVAWYQQKPGKAPKLLIYSASSLYSGVPSRFSGSRSGTDFTLTISSLQPEDFATYYCQQYGYHNAGLITFGQGTKVEIK
notes: Fab
On to B5, for which the binding entry is “binds”.

B6: 3131 AM2-14 (Fab, V domains shown)
VH: EVQLVESGGGLVQPGGSLRLSCAASGFNLYYSSMHWVRQAPGKGLEWVASIYSSYGYTYYADSVKGRFTISADTSKNTAYLQMNSLRAEDTAVYYCARSSFSHGYGWYGLDYWGQGTLVTVSS
VL: DIQMTQSPSSLSASVGDRVTITCRASQSVSSAVAWYQQKPGKAPKLLIYSASSLYSGVPSRFSGSRSGTDFTLTISSLQPEDFATYYCQQYGYHGAGLITFGQGTKVEIK
notes: Fab
As to B6, the binding entry is “binds”.

B7: 3131 AM2-2 (Fab, V domains shown)
VH: EVQLVESGGGLVQPGGSLRLSCAASGFNLYYSSMHWVRQAPGKGLEWVASIYSSHGRTGYADSVKGRFTISADTSKNTAYLQMNSLRAEDTAVYYCARSSFSHGYGWYGLDYWGQGTLVTVSS
VL: DIQMTQSPSSLSASVGDRVTITCRASQSVSSAVAWYQQKPGKAPKLLIYSASSRDSGVPSRFSGSRSGTDFTLTISSLQPEDFATYYCQQYGYHYAGLITFGQGTKVEIK
notes: Fab
Regarding B7, the binding entry was “binds”.

B8: 3131 AM2-7 (Fab, V domains shown)
VH: EVQLVESGGGLVQPGGSLRLSCAASGFNLYYSSMHWVRQAPGKGLEWVASIYSSHGGTYYADSVKGRFTISADTSKNTAYLQMNSLRAEDTAVYYCARSSFSHGYGWYGLDYWGQGTLVTVSS
VL: DIQMTQSPSSLSASVGDRVTITCRASQSVSSAVAWYQQKPGKAPKLLIYSASSLYSGVPSRFSGSRSGTDFTLTISSLQPEDFATYYCQQYGYHDAGLITFGQGTKVEIK
notes: Fab
B8: the binding entry is “binds”.

B9: 3131 AM2-13 (Fab, V domains shown)
VH: EVQLVESGGGLVQPGGSLRLSCAASGFNLYYSSMHWVRQAPGKGLEWVASIYSSYGYTYYADSVKGRFTISADTSKNTAYLQMNSLRAEDTAVYYCARSSFSHGYGWYGLDYWGQGTLVTVSS
VL: DIQMTQSPSSLSASVGDRVTITCRASQSVSSAVAWYQQKPGKAPKLLIYSASSLYSGVPSRFSGSRSGTDFTLTISSLQPEDFATYYCQQYGYHDAGLITFGQGTKVEIK
notes: Fab
Take B9: the binding entry is “binds”.

B10: 3131 AM2-6 (Fab, V domains shown)
VH: EVQLVESGGGLVQPGGSLRLSCAASGFNLYYSSMHWVRQAPGKGLEWVASIYSSHGGTNYADSVKGRFTISADTSKNTAYLQMNSLRAEDTAVYYCARSSFSHGYGWYGLDYWGQGTLVTVSS
VL: DIQMTQSPSSLSASVGDRVTITCRASQSVSSAVAWYQQKPGKAPKLLIYSASSLYSGVPSRFSGSRSGTDFTLTISSLQPEDFATYYCQQYGYHYAGLITFGQGTKVEIK
notes: Fab
With B10, the binding result is reported as “binds”.

B11: 3131 AM2-18 (Fab, V domains shown)
VH: EVQLVESGGGLVQPGGSLRLSCAASGFNLYYSSMHWVRQAPGKGLEWVASIYSSGGSTSYADSVKGRFTISADTSKNTAYLQMNSLRAEDTAVYYCARSSFSHGYGWYGLDYWGQGTLVTVSS
VL: DIQMTQSPSSLSASVGDRVTITCRASQSVSSAVAWYQQKPGKAPKLLIYSASSLYSGVPSRFSGSRSGTDFTLTISSLQPEDFATYYCQQYGYHYAGLITFGQGTKVEIK
notes: Fab
For the molecule B11, the binding entry was “binds”.

B12: 3131 AM2-15 (Fab, V domains shown)
VH: EVQLVESGGGLVQPGGSLRLSCAASGFNLYYSSMHWVRQAPGKGLEWVASIYSSSGDTGYADSVKGRFTISADTSKNTAYLQMNSLRAEDTAVYYCARSSFSHGYGWYGLDYWGQGTLVTVSS
VL: DIQMTQSPSSLSASVGDRVTITCRASQSVSSAVAWYQQKPGKAPKLLIYSASSLYSGVPSRFSGSRSGTDFTLTISSLQPEDFATYYCQQYGYHYAGLITFGQGTKVEIK
notes: Fab
For B12, the binding entry was “binds”.

B13: 3131 AM2-17 (Fab, V domains shown)
VH: EVQLVESGGGLVQPGGSLRLSCAASGFNLYYSSMHWVRQAPGKGLEWVASIYSSHGNTDYADSVKGRFTISADTSKNTAYLQMNSLRAEDTAVYYCARSSFSHGYGWYGLDYWGQGTLVTVSS
VL: DIQMTQSPSSLSASVGDRVTITCRASQSVSSAVAWYQQKPGKAPKLLIYSASSLYSGVPSRFSGSRSGTDFTLTISSLQPEDFATYYCQQYGYHYAGLITFGQGTKVEIK
notes: Fab
Take B13: the binding entry is “binds”.

B14: 3131 AM2-1 (Fab, V domains shown)
VH: EVQLVESGGGLVQPGGSLRLSCAASGFNLYYSSMHWVRQAPGKGLEWVASIYSSYGYTYYADSVKGRFTISADTSKNTAYLQMNSLRAEDTAVYYCARSSFSHGYGWYGLDYWGQGTLVTVSS
VL: DIQMTQSPSSLSASVGDRVTITCRASQSVSSAVAWYQQKPGKAPKLLIYSASSLYSGVPSRFSGSRSGTDFTLTISSLQPEDFATYYCQQYGYHHAGLITFGQGTKVEIK
notes: Fab
In the case of B14, the binding result is on record as “binds”.

B15: 3131 AM2-4 (Fab, V domains shown)
VH: EVQLVESGGGLVQPGGSLRLSCAASGFNLYYSSMHWVRQAPGKGLEWVASIYSSSGSTCYADSVKGRFTISADTSKNTAYLQMNSLRAEDTAVYYCARSSFSHGYGWYGLDYWGQGTLVTVSS
VL: DIQMTQSPSSLSASVGDRVTITCRASQSVSSAVAWYQQKPGKAPKLLIYSASSLYSGVPSRFSGSRSGTDFTLTISSLQPEDFATYYCQQYGYHYAGLITFGQGTKVEIK
notes: Fab
As to B15, the binding result is listed as “binds”.
